For this assay, the target named is Rpb3-TAP (yeast) (UniProt P16370). The assay can be described thus: tandem affinity purification (TAP) with silver staining; Pol II complexes purified from yeast YYW122 through Rpb3-TAP; silver-stained gel.

Protein sequences, listed by entry. Tags and fused reporters are not part of them.
UniProt P16370: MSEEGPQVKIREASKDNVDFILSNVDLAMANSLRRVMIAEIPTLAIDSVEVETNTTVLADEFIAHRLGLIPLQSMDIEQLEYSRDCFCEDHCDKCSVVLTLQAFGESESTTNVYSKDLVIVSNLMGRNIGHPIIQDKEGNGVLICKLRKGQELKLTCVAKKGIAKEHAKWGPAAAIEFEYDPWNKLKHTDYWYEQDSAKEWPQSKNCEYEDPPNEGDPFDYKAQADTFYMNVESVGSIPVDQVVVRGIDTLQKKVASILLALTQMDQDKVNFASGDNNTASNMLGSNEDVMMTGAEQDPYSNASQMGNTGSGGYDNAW
UniProt P08518: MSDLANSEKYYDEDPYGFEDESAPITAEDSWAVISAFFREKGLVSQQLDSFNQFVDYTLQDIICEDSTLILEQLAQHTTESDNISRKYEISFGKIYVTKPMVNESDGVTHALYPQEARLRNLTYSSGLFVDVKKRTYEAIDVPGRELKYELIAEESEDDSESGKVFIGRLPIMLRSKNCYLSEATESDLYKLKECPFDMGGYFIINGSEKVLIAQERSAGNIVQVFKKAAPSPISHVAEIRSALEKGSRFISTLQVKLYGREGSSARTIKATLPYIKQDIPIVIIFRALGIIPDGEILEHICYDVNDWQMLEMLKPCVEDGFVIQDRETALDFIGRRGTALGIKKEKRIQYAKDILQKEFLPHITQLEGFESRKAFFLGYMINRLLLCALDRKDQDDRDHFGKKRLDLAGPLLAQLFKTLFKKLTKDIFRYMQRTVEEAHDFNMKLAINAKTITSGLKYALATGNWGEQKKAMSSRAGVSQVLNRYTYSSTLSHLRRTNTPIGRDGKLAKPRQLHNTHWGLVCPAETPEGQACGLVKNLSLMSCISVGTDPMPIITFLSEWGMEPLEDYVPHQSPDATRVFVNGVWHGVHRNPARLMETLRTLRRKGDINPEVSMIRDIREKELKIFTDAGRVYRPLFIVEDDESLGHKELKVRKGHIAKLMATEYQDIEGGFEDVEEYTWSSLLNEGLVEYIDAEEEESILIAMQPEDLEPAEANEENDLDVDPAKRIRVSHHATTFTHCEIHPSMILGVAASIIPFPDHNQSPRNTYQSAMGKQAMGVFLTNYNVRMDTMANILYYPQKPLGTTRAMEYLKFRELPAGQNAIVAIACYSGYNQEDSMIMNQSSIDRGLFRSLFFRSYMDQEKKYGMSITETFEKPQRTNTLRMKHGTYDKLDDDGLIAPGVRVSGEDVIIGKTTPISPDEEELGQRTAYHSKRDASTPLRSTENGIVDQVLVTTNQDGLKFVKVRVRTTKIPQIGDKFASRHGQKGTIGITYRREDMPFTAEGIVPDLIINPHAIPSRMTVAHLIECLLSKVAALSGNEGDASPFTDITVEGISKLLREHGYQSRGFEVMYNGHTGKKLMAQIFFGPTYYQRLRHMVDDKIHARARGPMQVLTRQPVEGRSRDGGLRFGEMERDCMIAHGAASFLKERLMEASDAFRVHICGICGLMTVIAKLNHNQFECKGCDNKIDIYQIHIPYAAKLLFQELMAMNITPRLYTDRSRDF

No constants are given. Whether binding was seen depends on the method and setting. Some binding calls cover weakened binding; strength is not graded here.

With Rpb2 (from UniProt P08518 1-1224), the binding result was “binds”.

The values above are taken from paper PMC4446442.
